The results in this text go back to PMC6486636.

By UniProt entry, the sequences of proteins in these tests, tags left out. Where a name states a change or a piece, a line headed by the entry shows the natural chain unless it says otherwise. Chains listed by the source or under a name are the forms on record and can include a tag or linker. Residues count along the entry.
UniProt P11940, residues 544-626: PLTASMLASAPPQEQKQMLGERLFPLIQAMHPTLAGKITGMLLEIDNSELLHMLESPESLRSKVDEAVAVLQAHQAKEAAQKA
LARP4A NTD L15AW22A (Q71RC2, form named): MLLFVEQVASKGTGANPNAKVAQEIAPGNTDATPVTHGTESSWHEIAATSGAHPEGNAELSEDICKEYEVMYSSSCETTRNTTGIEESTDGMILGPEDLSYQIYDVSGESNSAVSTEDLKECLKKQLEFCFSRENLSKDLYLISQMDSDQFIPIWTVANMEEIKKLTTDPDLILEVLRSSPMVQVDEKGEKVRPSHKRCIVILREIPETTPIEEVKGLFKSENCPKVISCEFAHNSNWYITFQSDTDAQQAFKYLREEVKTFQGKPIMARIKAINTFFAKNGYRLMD

The assay addresses His-SUMO-MLLE (PABPC1 MLLE domain 544-626 fused with a His-tagged SUMO tag) (UniProt P11940). In words: pull-down; His-SUMO-MLLE (200 ug) as bait mixed with 250 ug untagged LARP4A protein on ice, Ni-NTA agarose, washes in 50 mM Tris pH 7.25, 100 mM KCl, 0.2 mM EDTA, 1 mM DTT, 10 mM imidazole, elution with 500 mM imidazole, Coomassie SDS-PAGE; both purified.

Results are given in words; binding and its absence hold for the method and conditions named.

Take “LARP4A NTD L15AW22A (from UniProt Q71RC2 1-287) (domain or fragment)”: the binding entry was “no binding”.
